According to PMC7261011:
These are yes or no findings as the source states them, for the method shown. In cells and extracts the contact can be indirect. Some entries that bind do so weakly or less than the wild type.

Experiments:
ADAM1B = target: T1, ADAM1B (UniProt Q8R534); assay: co-IP; lysates of HEK293T cells coexpressing IZUMO1 and each of the other proteins; antibody-conjugated Protein A/G magnetic beads, 1 h at 4 °C; lysis buffer 50 mM Tris pH 7.5, 150 mM NaCl, 1% Triton X-100, 10% glycerol, 1 mM DTT; Western blot
T1 sequence: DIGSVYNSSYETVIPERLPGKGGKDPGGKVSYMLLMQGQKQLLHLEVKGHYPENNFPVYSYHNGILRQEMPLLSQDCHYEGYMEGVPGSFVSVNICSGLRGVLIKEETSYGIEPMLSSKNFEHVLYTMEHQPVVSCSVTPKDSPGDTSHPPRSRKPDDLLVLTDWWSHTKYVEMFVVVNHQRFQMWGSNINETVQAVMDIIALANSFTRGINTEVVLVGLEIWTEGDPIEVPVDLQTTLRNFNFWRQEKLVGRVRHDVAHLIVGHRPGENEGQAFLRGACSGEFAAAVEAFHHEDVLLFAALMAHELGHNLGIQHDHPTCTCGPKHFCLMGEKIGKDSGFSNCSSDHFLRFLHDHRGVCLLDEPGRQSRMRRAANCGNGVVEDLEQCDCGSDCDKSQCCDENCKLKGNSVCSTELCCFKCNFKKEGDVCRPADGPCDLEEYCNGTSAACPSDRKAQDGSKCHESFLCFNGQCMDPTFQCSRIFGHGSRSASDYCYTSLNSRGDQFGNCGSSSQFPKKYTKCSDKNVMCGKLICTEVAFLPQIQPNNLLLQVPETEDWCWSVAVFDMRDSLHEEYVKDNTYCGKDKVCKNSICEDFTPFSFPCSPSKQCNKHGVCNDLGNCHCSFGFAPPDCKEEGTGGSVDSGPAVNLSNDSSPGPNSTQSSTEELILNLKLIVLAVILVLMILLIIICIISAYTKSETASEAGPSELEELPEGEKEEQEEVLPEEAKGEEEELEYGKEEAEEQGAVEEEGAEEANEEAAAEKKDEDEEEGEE

[1] = target: T2, mouse TMEM95 (transmembrane protein 95) expressed in HEK293T cells (TMEM95-1D4) (mouse) (UniProt P0DJF3); assay: as above
T2 sequence: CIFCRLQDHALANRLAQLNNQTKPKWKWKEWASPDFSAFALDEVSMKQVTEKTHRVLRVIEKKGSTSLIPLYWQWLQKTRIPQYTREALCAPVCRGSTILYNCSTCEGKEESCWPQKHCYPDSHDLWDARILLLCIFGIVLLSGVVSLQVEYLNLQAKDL

B1: recombinant mouse IZUMO1 expressed in HEK293T cells (IZUMO1-mCherry) (protein, UniProt Q9D9J7 22-397)
chain: CIKCDQFVTDALKTFENTYLNDHLPHDIHKNVMRMVNHEVSSFGVVTSAEDSYLGAVDENTLEQATWSFLKDLKRITDSDLKGELFIKELLWMLRHQKDIFNNLARQFQKEVLCPNKCGVMSQTLIWCLKCEKQLHICRKSLDCGERHIEVHRSEDLVLDCLLSWHRASKGLTDYSFYRVWENSSETLIAKGKEPYLTKSMVGPEDAGNYRCVLDTINQGHATVIRYDVTVLPPKHSEENQPPNIITQEEHETPVHVTPQTPPGQEPESELYPELHPELYPELIPTVAQNPEKKMKTRLLILLTLGFVVLVASIIISVLHFRKVSAKLKNASDEVKPTASGSKSDQSLSQQMGLKKASQADFNSDYSGDKSEATEN
B1 was tested, and the binding (ADAM1B) was “no binding” and the binding [1] was “binds”.
